In PMC8173209:
No constants are given. Whether binding was seen depends on the method and setting. In cells and extracts the contact can be indirect. Some binding calls cover weakened binding; strength is not graded here.

Amino acid sequences for entries named in this document (tags omitted).
UniProt P03372: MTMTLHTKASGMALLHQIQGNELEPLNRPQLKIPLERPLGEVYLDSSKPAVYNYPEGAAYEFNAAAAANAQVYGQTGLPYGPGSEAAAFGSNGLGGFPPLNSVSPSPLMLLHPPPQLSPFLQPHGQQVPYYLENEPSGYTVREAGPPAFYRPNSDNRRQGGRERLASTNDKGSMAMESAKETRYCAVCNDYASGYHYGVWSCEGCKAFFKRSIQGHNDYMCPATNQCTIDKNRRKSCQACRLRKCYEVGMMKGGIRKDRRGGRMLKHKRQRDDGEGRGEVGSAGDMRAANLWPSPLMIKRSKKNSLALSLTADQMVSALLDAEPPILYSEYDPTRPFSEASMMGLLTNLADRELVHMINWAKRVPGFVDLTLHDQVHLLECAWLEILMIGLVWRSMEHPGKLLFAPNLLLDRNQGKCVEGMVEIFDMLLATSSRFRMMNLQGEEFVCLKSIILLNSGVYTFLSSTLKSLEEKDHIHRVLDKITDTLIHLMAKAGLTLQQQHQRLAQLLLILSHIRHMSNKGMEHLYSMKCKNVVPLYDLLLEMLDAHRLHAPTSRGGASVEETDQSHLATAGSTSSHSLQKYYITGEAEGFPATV
UniProt Q9BYM8: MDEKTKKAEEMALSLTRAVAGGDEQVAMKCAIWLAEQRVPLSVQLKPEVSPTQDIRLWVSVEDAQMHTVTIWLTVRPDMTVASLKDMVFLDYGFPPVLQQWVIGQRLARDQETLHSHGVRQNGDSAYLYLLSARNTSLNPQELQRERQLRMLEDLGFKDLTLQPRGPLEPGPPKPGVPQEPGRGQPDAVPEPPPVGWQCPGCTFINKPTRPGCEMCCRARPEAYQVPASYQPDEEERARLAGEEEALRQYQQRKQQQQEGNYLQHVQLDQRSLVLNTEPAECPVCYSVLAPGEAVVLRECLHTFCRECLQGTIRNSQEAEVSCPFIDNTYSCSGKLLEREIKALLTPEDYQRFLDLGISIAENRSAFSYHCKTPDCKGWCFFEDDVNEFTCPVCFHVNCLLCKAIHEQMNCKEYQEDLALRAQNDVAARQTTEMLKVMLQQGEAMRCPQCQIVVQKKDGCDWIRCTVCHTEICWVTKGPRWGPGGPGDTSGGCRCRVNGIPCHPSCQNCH

What was measured:
[1] = target: Estrogen receptor α (ERα), endogenous (human (endogenous in MCF-7)) (UniProt P03372); test: co-IP; endogenous proteins, MCF-7 cells harvested with RIPA lysis buffer; lysate pre-cleared with rabbit IgG, immunoprecipitated with ERα antibody (D8H8) overnight, blotted with anti-HOIL-1; rabbit IgG as negative control
HA-ERα full length = HA-ERα full length (UniProt P03372); test: co-IP; HEK293 cells transfected with HA-ERα and Flag-HOIL-1 full length or deletion mutants; NP-40 lysis buffer after 24 h; IP with HA antibody, detection with Flag antibody
Flag-HOIL-1 full length = Flag-HOIL-1 full length (UniProt Q9BYM8); test: co-IP; HEK293 cells transfected with Flag-HOIL-1 and HA-ERα full length or deletion mutants; NP-40 lysis buffer after 24 h; IP with Flag antibody, detection with HA antibody

HOIL-1 (Haem-oxidized IRP2 Ubiquitin Ligase-1), endogenous (from UniProt Q9BYM8 1-510)
binding [1]: binds

Flag-HOIL-1 full length (from UniProt Q9BYM8 1-510)
binding (HA-ERα full length): binds

HA-ERα full length (from UniProt P03372 1-595)
binding (Flag-HOIL-1 full length): binds
